Assay results from US20070027181A1, “Benzylisoquinoline derivative- or bisbenzylisoquinoline derivative-containing psychotropic agent, analgesic and/or antiphlogistic, and health food” (EDUCATION CENTER OF TRADITIONAL, priority 2004, published 2007).
At least one compound was matched to its structure with a doubt left.

Test system: mice
Assay: locomotor activity (ultromotivity) test, evaluation of sedative action
Type: in vivo, Male ICR mice
Protocol: In the following Examples, all extracts and drugs used were dissolved in physiological saline before use for i.p. administration and the dose was 0.1 ml of physiological saline per 10 g of mouse body weight in either case. All extracts and drugs were suspended in physiological saline containing 1% sodium carboxymethylcellulose before use for oral administration and the dose was 0.1 ml of 1% sodium carboxymethylcellulose-containing physiological saline suspension per 10 g of mouse body weight in either case. […]
Twenty five mice were grouped into five groups each having five mice, to which 5 mg/kg of N-methylcoclaurine hydrochloride (treatment group 1-1: i.p. administration), 50 mg/kg of neferine hydrochloride (treatment group 1-2: oral administration, and treatment group 1-3: i.p. administration), 50 mg/kg of liensinine hydrochloride (treatment group 1-4: oral administration), or physiological saline (negative control group 1-1: i.p. administration) was administered. The ultromotivity of the mice was analyzed by using a locomotor activity monitoring system (NS-AS01, Neuroscience Inc.). […]

Structure (SMILES)	Ultromotivity (count) 30 minutes (10 mg/kg i.p., 30 minutes) [count]	Ultromotivity (count) 60 minutes (25 mg/kg i.p., 60 minutes) [count]
COc1ccc(C[C@@H]2c3cc(OC)c(OC)cc3CCN2C)cc1 [O-methylarmepavine]	708.0 ± 85.5	–
COc1cc2c(cc1OC)C(Cc1ccc(O)cc1)N(C)CC2 (centres unmarked) [armepavine]	–	524.0 ± 149.3
